Results deposited as PubChem BioAssay AID652259 (Drosophila RNAi Screening Center, 2013)

Purpose: 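Knock-downs that push a Wingless-driven reporter up or down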 (primary screen)
Cell system: Drosophila clone 8 imaginal disc epithelial cells
Reagent: long dsRNA against Drosophila genes
Conditions: pathway stimulated by co-transfected Wingless expression plasmid
Detection: 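Dual luciferase reads per well after Wingless plasmid stimulation: reporter firefly light and Renilla control light; activity is firefly divided by Renilla, a ratio not deposited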
Direction: firefly reporter light: higher = more Wg reporter light, before normalisation; Renilla control light: higher = more transfected or surviving cells
Call rule: 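Strong candidates differ from their plate mean by at least two out of four per-plate statistical tests; weak candidates meet just one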
Meaning of the calls: active = candidate regulator (raises or lowers reporter); inactive = not a candidate
The screen tested about 22,000 reagents; below is a random part of those that have a named target and a result. Over the whole deposit, 233 (1.1%) are marked active. 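Light values are raw, unnormalised plate reads; the ratio scores behind the reporter calls were not deposited.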 Names joined by + are all predicted targets of the reagent. Not stated in the record: the amount of reagent, the time to read-out, the dose of the treatment.

predicted target | dsRNA | reporter change call, replicate 1 | firefly reporter light, replicate 1 | firefly reporter light, replicate 2 | Renilla control light, replicate 1 | Renilla control light, replicate 2 | outcome
CG14506 (GeneID 43467) | DRSC14858 | – | 8744 | – | 3096 | – | inactive
Bsg (GeneID 318841) | DRSC01010 | – | 13292 | – | 3233 | – | inactive
Bsg (GeneID 318841) | DRSC01011 | – | 18955 | – | 7873 | – | inactive
Sap30 (GeneID 32664) | DRSC19916 | – | 11558 | – | 7901 | – | inactive
GLaz (GeneID 36447) | DRSC07431 | – | 3309 | – | 1744 | – | inactive
CG17376 (GeneID 59227) | DRSC21717 | – | 2.33e5 | 2.13e5 | 1.16e5 | 90300 | inactive
goe (GeneID 32660) | DRSC19345 | – | 17369 | – | 7610 | – | inactive
CG13124 (GeneID 34310) | DRSC02220 | – | 6743 | – | 1656 | – | inactive
aos (GeneID 39833) | DRSC11323 | – | 5333 | – | 2544 | – | inactive
CG14204 (GeneID 32950) | DRSC19559 | – | 19847 | – | 9094 | – | inactive
uncNacbeta (GeneID 33232) | DRSC00326 | – | 4044 | 4284 | 1424 | 2733 | inactive
CG34347 (GeneID 5740668) | DRSC14047 | – | 3019 | – | 880 | – | inactive
CG34347 (GeneID 5740668) | DRSC14305 | – | 9675 | – | 2292 | – | inactive
CG34347 (GeneID 5740668) | DRSC15104 | – | 9493 | – | 1879 | – | inactive
CG34347 (GeneID 5740668) | DRSC15105 | – | 2456 | – | 298 | – | inactive
DhpD (GeneID 40528) | DRSC12288 | – | 5931 | – | 2250 | – | inactive
CG14538 (retired record) (GeneID 34056) | DRSC02396 | – | 3285 | 7667 | 1325 | 4157 | inactive
sax (GeneID 35731) | DRSC07675 | – | 8981 | – | 3344 | – | inactive
PGRP-SD (GeneID 38858) | DRSC10856 | – | 1408 | 4188 | 1258 | 2384 | inactive
Gasp (GeneID 40745) | DRSC12349 | – | 9389 | – | 2513 | – | inactive
Ser6 (GeneID 33073) | DRSC20574 | – | 18781 | – | 11781 | – | inactive
GluRIIB (GeneID 33789) | DRSC03335 | – | 3432 | 6188 | 811 | 1864 | inactive
CG13870 (GeneID 37308) | DRSC06429 | – | 4280 | – | 1858 | – | inactive
CG32075 (GeneID 326192) | DRSC10622 | – | 4872 | – | 2221 | – | inactive
Tti1 (GeneID 41189) | DRSC15163 | – | 9952 | – | 2360 | – | inactive
mTerf5 (GeneID 42182) | DRSC16209 | – | 2898 | 7787 | 1653 | 2320 | inactive
Sap-r (GeneID 43662) | DRSC16849 | – | 4611 | 13228 | 1803 | 4377 | inactive
Sap-r (GeneID 43662) | DRSC21916 | – | 5.60e5 | 5.62e5 | 1.43e5 | 1.44e5 | inactive
GCS1 (GeneID 32073) | DRSC19744 | – | 1241 | 8388 | 832 | 2672 | inactive
CG17776 (GeneID 50373) | DRSC18136 | – | 22093 | – | 15350 | – | inactive
CG34458 (GeneID 5740868) | DRSC06925 | – | 6326 | – | 2576 | – | inactive
CG12836 (GeneID 35630) | DRSC06182 | – | 3929 | 7814 | 1171 | 3328 | inactive
vls (GeneID 35289) | DRSC02101 | – | 7936 | – | 2992 | – | inactive
brv2 (GeneID 39932) | DRSC10226 | – | 5460 | – | 2237 | – | inactive
CG14572 (GeneID 40422) | DRSC11733 | – | 16346 | – | 6013 | – | inactive
TyrRS (GeneID 39829) | DRSC10430 | – | 5740 | – | 1988 | – | inactive
ewg (GeneID 30975) | DRSC18773 | – | 24650 | 6.47e5 | 15824 | 2.96e5 | inactive
Cdk1 (GeneID 34411) | DRSC03504 | Wg reporter activity lowered | 4232 | – | 2076 | – | active
CG7246 (GeneID 31833) | DRSC18422 | – | 3376 | – | 1426 | – | inactive
CG31551 (GeneID 318795) | DRSC12159 | – | 8837 | – | 3724 | – | inactive
CG31551 (GeneID 318795) | DRSC22403 | – | 8.14e5 | 7.82e5 | 3.48e5 | 3.32e5 | inactive
Sry-beta (GeneID 43570) | DRSC16868 | – | 2600 | 4299 | 541 | 966 | inactive
CG10026 (GeneID 35226) | DRSC02010 | – | 2307 | 5099 | 1000 | 3069 | inactive
CG32152 (GeneID 317885) | DRSC22906 | – | 7.41e5 | 7.23e5 | 3.02e5 | 2.79e5 | inactive
Rpn5 (GeneID 40717) | DRSC12367 | – | 6912 | – | 1812 | – | inactive
EcR (GeneID 35540) | DRSC04906 | – | 4555 | 13984 | 966 | 3312 | inactive
EcR (GeneID 35540) | DRSC04910 | – | 8773 | – | 2391 | – | inactive
CG8858 (GeneID 36319) | DRSC07290 | – | 5703 | – | 2444 | – | inactive
CG15152 (GeneID 35082) | DRSC02453 | – | 1473 | 6299 | 864 | 2418 | inactive
CG8841 (GeneID 36336) | DRSC07286 | – | 7578 | – | 2231 | – | inactive
CG3918 (GeneID 31585) | DRSC18331 | – | 2726 | 4229 | 364 | 618 | inactive
Gnmt (GeneID 41561) | DRSC15987 | – | 14157 | – | 4348 | – | inactive
Muc12Ea (GeneID 32384) | DRSC19937 | – | 26593 | 8.25e5 | 14371 | 3.56e5 | inactive
numb (GeneID 34263) | DRSC03584 | – | 13293 | – | 3411 | – | inactive
Pstk + CG14210 + Tim9b | DRSC19566 | – | 15261 | – | 9285 | – | inactive
Nup205 (GeneID 33002) | DRSC19432 | Wg reporter activity raised | 7285 | 14505 | 928 | 2269 | active
Mst98Cb (GeneID 43367) | DRSC16750 | – | 10228 | – | 4684 | – | inactive
Mst98Cb (GeneID 43367) | DRSC22495 | – | 7.57e5 | 6.77e5 | 2.74e5 | 9009 | inactive
Task7 (GeneID 41125) | DRSC16477 | – | 9552 | – | 3290 | – | inactive
CG4476 (GeneID 39056) | DRSC10424 | – | 1569 | 7219 | 1384 | 3286 | inactive
Dup99B (GeneID 2768691) | DRSC22877 | – | 4.72e5 | 4.56e5 | 2.07e5 | 2.15e5 | inactive
CG14995 (GeneID 38487) | DRSC08452 | Wg reporter activity raised | 7917 | – | 1040 | – | active
HmgZ (GeneID 37480) | DRSC03888 | – | 22339 | – | 11844 | – | inactive
HmgZ (GeneID 37480) | DRSC04620 | – | 2614 | 9216 | 832 | 3929 | inactive
sgg (GeneID 31248) | DRSC17228 | – | 4916 | – | 1708 | – | inactive
sgg (GeneID 31248) | DRSC17722 | – | 4839 | – | 1547 | – | inactive
sgg (GeneID 31248) | DRSC18832 | – | 16556 | – | 12684 | – | inactive
ProRS-m (GeneID 38331) | DRSC08261 | – | 5281 | – | 1383 | – | inactive
Bfc (GeneID 38138) | DRSC08623 | – | 9477 | – | 4320 | – | inactive
dlt (GeneID 46719) | DRSC08705 | – | 3824 | – | 2450 | – | inactive
CG7546 (GeneID 38844) | DRSC08885 | – | 2402 | – | 741 | – | inactive
CG7546 (GeneID 38844) | DRSC10871 | – | 10346 | – | 3297 | – | inactive
CG7546 (GeneID 38844) | DRSC22148 | – | 7.28e5 | 7.14e5 | 3.17e5 | 3.04e5 | inactive
Alg9 (GeneID 43031) | DRSC14407 | – | 3216 | 8096 | 1636 | 2916 | inactive
CG6262 (GeneID 36833) | DRSC06971 | – | 6603 | – | 1060 | – | inactive
lncRNA:CR43632 (GeneID 12798265) | DRSC13730 | – | 4496 | – | 1696 | – | inactive
CG33922 (GeneID 3771945) | DRSC00050 | – | 18402 | – | 8715 | – | inactive
CG13217 (GeneID 36180) | DRSC06339 | – | 8749 | – | 4053 | – | inactive
AMPKalpha (GeneID 43904) | DRSC18714 | – | 4304 | 4848 | 1456 | 1302 | inactive
CG18545 (GeneID 41264) | DRSC15343 | – | 11010 | – | 3786 | – | inactive
Pgi (GeneID 35886) | DRSC07507 | – | 8083 | – | 2336 | – | inactive
FarO (GeneID 45707) | DRSC18475 | – | 30176 | – | 18281 | – | inactive
CG5623 (GeneID 41904) | DRSC15848 | – | 21208 | – | 6640 | – | inactive
CG42591 (GeneID 8674006) | DRSC08905 | – | 2392 | – | 433 | – | inactive
NKAIN (GeneID 37979) | DRSC04531 | – | 13936 | – | 3628 | – | inactive
NKAIN (GeneID 37979) | DRSC22470 | – | 4.20e5 | 3.97e5 | 1.62e5 | 1.55e5 | inactive
Nse4 (GeneID 34434) | DRSC02239 | – | 3338 | 7460 | 986 | 3649 | inactive
CG13436 (GeneID 37334) | DRSC06396 | – | 3633 | – | 2611 | – | inactive
CG3842 (GeneID 31576) | DRSC18326 | – | 25921 | – | 12130 | – | inactive
mEFTu1 (GeneID 44438) | DRSC06959 | – | 16729 | – | 4597 | – | inactive
CG11342 (GeneID 38538) | DRSC08175 | – | 2035 | 7273 | 1660 | 3371 | inactive
coro (GeneID 35596) | DRSC05007 | – | 16977 | – | 5488 | – | inactive
coro (GeneID 35596) | DRSC21417 | – | 5.47e5 | 6.00e5 | 2.29e5 | 2.36e5 | inactive
